The target of the test is Vps41(S-D)-GFP-Fis1 (S. cerevisiae) (UniProt P38959). Nature of the test: co-sedimentation; mitochondria purified from yeast grown in YPG by differential centrifugation and a sucrose gradient; crude and pure fractions analysed by Western blot. In general terms: In western blotting, separated proteins are transferred to a membrane and probed.

The chains behind the UniProt entries cited, without tags or fusion partners. Where a name states a change or a piece, a line headed by the entry shows the natural chain unless it says otherwise. A line that says so, or that is headed by a name, gives the form on record, which may keep a tag or linker.
UniProt P38959: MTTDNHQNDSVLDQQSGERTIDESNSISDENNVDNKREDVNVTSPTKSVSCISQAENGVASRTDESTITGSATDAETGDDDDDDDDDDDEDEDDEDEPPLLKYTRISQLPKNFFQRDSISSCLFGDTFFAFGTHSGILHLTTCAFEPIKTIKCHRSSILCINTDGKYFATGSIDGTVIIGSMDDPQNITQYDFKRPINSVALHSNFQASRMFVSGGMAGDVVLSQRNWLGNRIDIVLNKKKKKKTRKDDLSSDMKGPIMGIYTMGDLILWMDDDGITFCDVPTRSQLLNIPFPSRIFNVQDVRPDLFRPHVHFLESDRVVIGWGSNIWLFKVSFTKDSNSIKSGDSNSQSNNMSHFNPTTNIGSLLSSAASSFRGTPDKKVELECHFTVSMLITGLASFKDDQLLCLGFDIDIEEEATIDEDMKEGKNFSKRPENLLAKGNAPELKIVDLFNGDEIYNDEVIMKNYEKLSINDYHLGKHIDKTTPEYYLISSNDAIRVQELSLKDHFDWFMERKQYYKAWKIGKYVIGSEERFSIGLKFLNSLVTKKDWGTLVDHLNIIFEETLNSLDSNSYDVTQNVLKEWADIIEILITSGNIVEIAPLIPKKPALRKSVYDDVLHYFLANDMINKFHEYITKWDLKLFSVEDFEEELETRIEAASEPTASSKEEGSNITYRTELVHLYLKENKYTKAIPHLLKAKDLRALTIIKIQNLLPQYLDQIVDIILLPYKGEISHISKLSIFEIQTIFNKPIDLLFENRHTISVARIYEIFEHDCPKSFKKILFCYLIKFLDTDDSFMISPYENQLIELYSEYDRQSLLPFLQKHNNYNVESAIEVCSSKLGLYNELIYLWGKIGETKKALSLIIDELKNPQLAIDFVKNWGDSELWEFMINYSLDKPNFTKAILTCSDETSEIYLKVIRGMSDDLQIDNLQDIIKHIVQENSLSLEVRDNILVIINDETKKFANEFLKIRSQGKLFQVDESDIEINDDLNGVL
Vps41(S-D)-GFP-Fis1 (P38959, form named): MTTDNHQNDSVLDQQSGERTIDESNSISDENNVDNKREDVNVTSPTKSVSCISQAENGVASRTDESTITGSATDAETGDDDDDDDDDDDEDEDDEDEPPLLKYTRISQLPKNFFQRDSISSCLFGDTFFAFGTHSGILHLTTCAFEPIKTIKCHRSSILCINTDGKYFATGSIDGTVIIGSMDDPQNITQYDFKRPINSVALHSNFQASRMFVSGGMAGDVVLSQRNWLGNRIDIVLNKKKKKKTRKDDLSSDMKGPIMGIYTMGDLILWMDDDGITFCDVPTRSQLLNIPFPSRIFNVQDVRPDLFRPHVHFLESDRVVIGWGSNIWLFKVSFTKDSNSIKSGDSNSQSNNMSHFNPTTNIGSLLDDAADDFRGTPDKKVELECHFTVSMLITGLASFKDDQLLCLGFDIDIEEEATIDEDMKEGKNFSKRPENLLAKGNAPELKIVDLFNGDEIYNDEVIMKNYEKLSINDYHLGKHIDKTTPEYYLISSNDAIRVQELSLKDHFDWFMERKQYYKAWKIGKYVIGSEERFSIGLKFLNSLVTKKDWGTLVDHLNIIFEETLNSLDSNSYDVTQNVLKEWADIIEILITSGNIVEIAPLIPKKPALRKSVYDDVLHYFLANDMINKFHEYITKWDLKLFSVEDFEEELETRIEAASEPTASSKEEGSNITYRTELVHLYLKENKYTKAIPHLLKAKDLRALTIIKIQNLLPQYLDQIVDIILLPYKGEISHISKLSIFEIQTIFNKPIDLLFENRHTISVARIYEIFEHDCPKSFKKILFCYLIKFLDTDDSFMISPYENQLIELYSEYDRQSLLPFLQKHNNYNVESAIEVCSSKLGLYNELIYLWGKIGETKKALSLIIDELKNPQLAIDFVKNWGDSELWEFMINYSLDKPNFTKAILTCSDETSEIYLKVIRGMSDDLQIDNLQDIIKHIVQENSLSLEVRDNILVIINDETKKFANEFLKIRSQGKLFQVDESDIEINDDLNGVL

Results are given in words; binding and its absence hold for the method and conditions named. In cells and extracts the contact can be indirect. Some entries that bind do so weakly or less than the wild type.

B1: Apl5 (protein, UniProt Q08951 1-932)
chain: MTSLYAPGAEDIRQRLRPFGFFFEKSLKDLIKGIRSHNETPEKLDQFFKQVLSECREEVNSPDLNSKTNAVLKLTYLEMYGFDMAWCNFHILEVMSSNKLQQKRVGYLAASQSFYKDSDILMLATNLLKKDLKYDGNNDVVKVGIALSGLSTIITPSLARDIADDLFTMLNSTRPYIRKKAITALFKVFLQYPEALRDNFDKFVSKLDDDDISVVSAAVSVICELSKKNPQPFIQLSPLLYEILVTIDNNWIIIRLLKLFTNLSQVEPKLRAKLLPKILELMESTVATSVIYESVNCIVKGNMLEEDDFETAMACLERLHTFCDSQDPNLRYISCILFYKIGKINTDFISRFDQLIIRLLSDVDVSIRSKAIELVEGIVDEDNLKAIVQTLMKQFVDEDVVILQTGSIVYEKSKRIPIIIPENYKIKMVNVIISICSADNYSSVNDFEWYNAVIMDLAMLCQDISDKSLGSKIGEQFRNLMIKVPSMREVTIANIIKLISNDNINKQLPTVLRECIWCLGEFSTLVENGNDLIKIMTENISYYSHSVQEVLILALVKVFSNWCNNFQEDKRFEIKMVLKELIEFFENLSYSSTFEVQERSVEVLEFLRLSLEALEEDTEGLPMLLSEVLPSFFNAYELAPIARGTQLKLAVDENLDLETPFLTKEAADELLDEQKSDAISDLMSDISMDEQVELKFVDDSDTSYEEKEKLDDFENPFEIEREKERMSNPYYLGEEDEERTKNSKDLLDLNEEESSDKKPETIRLNRTDNSLNSLSLSTTEISRKKKKGKKKNRVQVLSDEPVIEAAPKRKDAFQKPHDNHSTQNPLKKDKINLRMHSQLENFDFSNFGQSSNAGRGSQEEGNLRKEDELELSRLEANLIVKDEKDNLSDTEEVIVIKKKKKGKKSKSKNKLKTKAKNSPEPNEFLRDQSTDI
Turning to B1, the binding result is “binds”.
